Results deposited as PubChem BioAssay AID1159584 (Peter MacCallum Cancer Centre, 2016)

Screen: 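Genes that CDH1-null MCF10A cells selectively depend on to survive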 (primary screen)
Cells: human MCF10A breast epithelial cells, parental and CDH1-null
Knock-down reagent: siRNA against human genes
Measured: 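ATP luminescence (CellTiter-Glo) viability per line relative to mean mock wells over all plates, and the ratio of CDH1-null to parental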
Direction: CDH1-null / parental viability ratio: higher = CDH1-null cells survive relatively better than parental; CDH1-null viability vs mock: higher = more viable CDH1-null cells; parental viability vs mock: higher = more viable parental cells
The deposit covers about 18,000 reagents; below is a part drawn at random. Not stated in the record: the amount of reagent, the time to read-out.

| gene knocked down | CDH1-null / parental viability ratio | CDH1-null viability vs mock (fraction of mock) | parental viability vs mock (fraction of mock) |
| --- | --- | --- | --- |
| VWA8 (von Willebrand factor A domain containing 8) | 0.67 | 0.5 | 0.75 |
| DUOXA2 (dual oxidase maturation factor 2) | 0.76 | 0.52 | 0.68 |
| SPMAP2 (sperm microtubule associated protein 2) | 1.12 | 1.14 | 1.02 |
| PANX2 (pannexin 2) | 1.13 | 0.26 | 0.23 |
| KXD1 (KxDL motif containing 1) | 1 | 0.44 | 0.44 |
| OR8K5 (olfactory receptor family 8 subfamily K member 5) | 0.61 | 0.43 | 0.71 |
| ARHGAP4 (Rho GTPase activating protein 4) | 1.13 | 1.11 | 0.98 |
| FANCB (FA complementation group B) | 0.88 | 0.71 | 0.81 |
| NINL (ninein like) | 0.74 | 1.02 | 1.38 |
| UBE2N (ubiquitin conjugating enzyme E2 N) | 1.45 | 0.71 | 0.49 |
| APOL2 (apolipoprotein L2) | 1.01 | 1.01 | 1 |
| TAFA1 (TAFA chemokine like family member 1) | 0.96 | 1 | 1.04 |
| NSMCE4A (NSE4A component of SMC5/6 complex) | 0.81 | 0.57 | 0.7 |
| SON (SON DNA and RNA binding protein) | 1.19 | 0.38 | 0.32 |
| TGFBR2 (transforming growth factor beta receptor 2) | 1.09 | 1.09 | 1 |
| GPR75 (G protein-coupled receptor 75) | 1.37 | 1 | 0.73 |
| UBE2R2 (ubiquitin conjugating enzyme E2 R2) | 1.14 | 0.96 | 0.84 |
| HSPA4 (heat shock protein family A (Hsp70) member 4) | 0.98 | 0.93 | 0.95 |
| LIM2 (lens intrinsic membrane protein 2) | 1.21 | 0.86 | 0.71 |
| POP7 (POP7 ribonuclease P/MRP subunit) | 0.84 | 0.72 | 0.86 |
| HRK (harakiri, BCL2 interacting protein) | 0.92 | 0.57 | 0.62 |
| BRINP1 (BMP/retinoic acid inducible neural specific 1) | 1.08 | 0.7 | 0.65 |
| SERP2 | 0.76 | 0.64 | 0.84 |
| CFAP299 (cilia and flagella associated protein 299) | 0.93 | 0.41 | 0.44 |
| TNNT1 (troponin T1, slow skeletal type) | 1.03 | 0.98 | 0.95 |
| PABPC4 (poly(A) binding protein cytoplasmic 4) | 0.87 | 0.94 | 1.08 |
| HBS1L (HBS1 like translational GTPase) | 0.98 | 0.92 | 0.94 |
| BLK (BLK proto-oncogene, Src family tyrosine kinase) | 1.06 | 0.86 | 0.81 |
| MFSD2A (MFSD2 lysolipid transporter A, lysophospholipid) | 1.22 | 0.78 | 0.64 |
| TXLNG (taxilin gamma) | 0.98 | 0.92 | 0.94 |
| MSANTD4 (Myb/SANT DNA binding domain containing 4 with coiled-coils) | 0.84 | 1.02 | 1.22 |
| OR51B5 (olfactory receptor family 51 subfamily B member 5) | 1.15 | 0.76 | 0.66 |
| HSF2BP (heat shock transcription factor 2 binding protein) | 1.11 | 0.98 | 0.88 |
| RPP38 (ribonuclease P/MRP subunit p38) | 1.15 | 0.6 | 0.52 |
| RARS2 (arginyl-tRNA synthetase 2, mitochondrial) | 1.15 | 0.92 | 0.8 |
| STK3 (serine/threonine kinase 3) | 0.67 | 0.61 | 0.91 |
| IFITM2 (interferon induced transmembrane protein 2) | 0.6 | 0.52 | 0.86 |
| ACSL6 (acyl-CoA synthetase long chain family member 6) | 0.75 | 0.72 | 0.96 |
| COX5A (cytochrome c oxidase subunit 5A) | 1.07 | 0.86 | 0.8 |
| SLC6A16 | 1.06 | 0.85 | 0.8 |
| DDX43 (DEAD-box helicase 43) | 0.79 | 0.8 | 1.01 |
| RGS6 (regulator of G protein signaling 6) | 0.92 | 0.74 | 0.8 |
| KRTAP19-5 (keratin associated protein 19-5) | 0.79 | 0.55 | 0.7 |
| PDXP (pyridoxal phosphatase) | 1.1 | 0.96 | 0.87 |
| MYMK (myomaker, myoblast fusion factor) | 1.12 | 0.94 | 0.84 |
| TRIM33 (tripartite motif containing 33) | 0.97 | 0.97 | 1 |
| LGALS9 (galectin 9) | 0.87 | 0.75 | 0.86 |
| XPOT (exportin for tRNA) | 1.18 | 0.86 | 0.73 |
| FANCM (FA complementation group M) | 0.59 | 0.41 | 0.7 |
| DENND6A (DENN domain containing 6A) | 1.1 | 0.91 | 0.83 |
| DOK5 (docking protein 5) | 1.27 | 1.02 | 0.8 |
| ZC2HC1C (zinc finger C2HC-type containing 1C) | 1.08 | 1.08 | 1 |
| TLN2 (talin 2) | 0.66 | 0.27 | 0.41 |
| AWAT2 (acyl-CoA wax alcohol acyltransferase 2) | 0.69 | 0.37 | 0.54 |
| PRB1 (proline rich protein BstNI subfamily 1) | 1.09 | 0.82 | 0.75 |
| MSI2 (musashi RNA binding protein 2) | 0.96 | 0.75 | 0.78 |
| PLSCR2 (phospholipid scramblase 2) | 1.06 | 1 | 0.94 |
| VIM (vimentin) | 0.89 | 0.54 | 0.61 |
| DSTYK (dual serine/threonine and tyrosine protein kinase) | 1.23 | 1.12 | 0.91 |
| JHY (junctional cadherin complex regulator) | 0.85 | 0.7 | 0.82 |
| ADPRM (ADP-ribose/CDP-alcohol diphosphatase, manganese dependent) | 1.01 | 0.98 | 0.97 |
| CLEC9A (C-type lectin domain containing 9A) | 0.81 | 0.44 | 0.54 |
| OR5K1 (olfactory receptor family 5 subfamily K member 1) | 0.86 | 0.64 | 0.74 |
| AP1M1 (adaptor related protein complex 1 subunit mu 1) | 1.04 | 0.57 | 0.55 |
| GAS8-AS1 (GAS8 antisense RNA 1) | 0.98 | 0.43 | 0.44 |
| STK17B (serine/threonine kinase 17b) | 1.12 | 0.99 | 0.88 |
| ADAM21 (ADAM metallopeptidase domain 21) | 1.2 | 0.83 | 0.69 |
| HGD (homogentisate 1,2-dioxygenase) | 0.95 | 0.84 | 0.88 |

7 successive entries from above, for reference:
| gene knocked down | CDH1-null / parental viability ratio | CDH1-null viability vs mock (fraction of mock) | parental viability vs mock (fraction of mock) |
| --- | --- | --- | --- |
| SON (SON DNA and RNA binding protein) | 1.19 | 0.38 | 0.32 |
| TGFBR2 (transforming growth factor beta receptor 2) | 1.09 | 1.09 | 1 |
| GPR75 (G protein-coupled receptor 75) | 1.37 | 1 | 0.73 |
| UBE2R2 (ubiquitin conjugating enzyme E2 R2) | 1.14 | 0.96 | 0.84 |
| HSPA4 (heat shock protein family A (Hsp70) member 4) | 0.98 | 0.93 | 0.95 |
| LIM2 (lens intrinsic membrane protein 2) | 1.21 | 0.86 | 0.71 |
| POP7 (POP7 ribonuclease P/MRP subunit) | 0.84 | 0.72 | 0.86 |
